{"source": "patent US20200368267A1", "about": "“PROPHYLACTIC AND/OR THERAPEUTIC AGENT FOR AMYOTROPHIC LATERAL SCLEROSIS” (KYOTO UNIVERSITY, priority 2017, published 2020)", "key": {"[1]": {"tested_on": "mutant SOD1 ALS MNs (ALS1)", "test": "MN survival assay and high content analysis", "assay_type": "cell-based, human", "conditions": "for MN survival: mutant SOD1 ALS MNs (ALS1), compound added day 7, counted day 14; for dose dependency of the protective effect on MNs: mutant SOD1 ALS MNs", "description": "iPS cell cells containing LNI cassette were dissociated into single cells using Accutase, and seeded together with 1 μg/ml of doxycycline (TAKARA, Kusatsu, Japan) in N3 medium containing 1 μM retinoic acid, 1 μM SAG, 10 ng/ml BDNF, 10 ng/ml GDNF, and 10 ng/ml NT-3 on a 96 well plate (BD Bioscience) coated with Matrigel. The cells were fixed and stained on days 7 and 14. The number of viable MNs stained with βIII-tubulin was quantified by IN Cell Analyzer 6000 and expressed as the number of day 14/day 7. […] In this assay, therefore, βIII-tubulin positive neurons were defined as MN. Neurite and cell body were detected by optimized fluorescence levels, and the number of cell bodies having neurite was counted as the number of surviving neurons using IN Cell Developer toolbox software 1.9.\nShort interfering RNA (siRNA) was purchased from Life Technologies (siRNA ID of Src siRNA 1: s13414; siRNA ID of Src siRNA 2: s13413; siRNA ID of c-Abl siRNA 1: s866; siRNA ID of c-Abl siRNA 2: s864; siRNA ID of mTOR siRNA: s604). Scramble siRNA purchased from Life Technologies was used as a negative control of siRNA. iPS cells were dissociated and plated with dox in a 96 well plate. On day 7, siRNA was transfected with Lipofectamine RNAiMAX (Thermo Fisher Scientific). Viable MN was evaluated 4 days after transfection by immunostaining with βIII-tubulin, followed by analysis with IN Cell Analyzer 6000 and IN Cell Developer toolbox software 1.9."}, "Src/c-Abl": {"tested_on": "Src/c-Abl", "test": "Phosphorylation of Src/c-Abl in mutant SOD1 ALS-MN culture (western blot, ELISA)", "assay_type": "cell-based, human"}, "Src [2]": {"tested_on": "Src", "test": "Phosphorylation of Src in SOD1-mutant ALS astrocytes", "assay_type": "cell-based, human", "conditions": "day 100 astrocytes"}, "Src [3]": {"tested_on": "Src", "test": "Phosphorylation of Src in SOD1-mutant ALS iPS cells", "assay_type": "cell-based, human"}, "p62, LC3-II/LC3-I": {"tested_on": "p62, LC3-II/LC3-I", "test": "Autophagy markers p62 and LC3-II/LC3-I in mutant SOD1 MN culture (western blot, ELISA)", "assay_type": "cell-based, human"}, "misfolded SOD1 protein": {"tested_on": "misfolded SOD1 protein", "test": "Misfolded SOD1 protein level in ALS-MNs (immunoprecipitation/western blotting, ELISA)", "assay_type": "cell-based, human", "conditions": "western blotting and ELISA"}, "SOD1 mRNA": {"tested_on": "SOD1 mRNA", "test": "SOD1 mRNA expression level (quantitative RT-PCR)", "assay_type": "cell-based, human", "conditions": "ALS-MNs"}, "intracellular ATP": {"tested_on": "intracellular ATP", "test": "ATP measurement in mutant SOD1 MN culture", "assay_type": "cell-based, human", "conditions": "1 μM bosutinib added on day 7, measured after 48 hr"}, "[4]": {"tested_on": "TCA cycle and respiratory electron transport mRNA expressions", "test": "Single-cell RNA sequencing with Gene Set Enrichment Analysis of ALS1 MN", "assay_type": "cell-based, human", "conditions": "bosutinib treatment for 72 hr, GSEA"}, "[5]": {"tested_on": "mutant TDP-43-, C9orf72 repeat expansion-associated familial ALS and sporadic ALS MNs", "test": "MN survival assay on iPSC-derived MNs with different genotypes", "assay_type": "cell-based, human", "conditions": "different types of familial ALS (mutant TDP-43, C9orf72 repeat expansion) and a part of sporadic ALS"}, "TDP-43": {"tested_on": "TDP-43", "test": "Western blotting of TDP-43 in ALS MN", "assay_type": "cell-based, human", "conditions": "for misfolded TDP-43: non-reducing conditions; for fragmented TDP-43: reducing conditions"}, "[6]": {"tested_on": "RAN (anti-GP repeat antibody)", "test": "Dot blot analysis of RAN (anti-GP repeat antibody) in C9orf72 ALS MN", "assay_type": "cell-based, human", "conditions": "ALS MN associated with elongation of C9orf72 repeat sequences"}, "mutant SOD1 Tg mice": {"tested_on": "mutant SOD1 Tg mice", "test": "ALS model mouse (Tg-G93A SOD1 mouse)", "assay_type": "in vivo"}}, "note": "At least one compound was matched to its structure with a doubt left. Some entries repeat one wording, which the source may state once for all of them.", "data": [{"smiles": "O=c1cc(N2CCOCC2)oc2c(-c3ccccc3)cccc12", "note": "[LY294002]", "values": [{"measurement": "effect of autophagy inhibitor on the protective effect of bosutinib in MN survival assay", "setting": "[1]; added to MNs with bosutinib treatment", "value": "decreased the protective effect of bosutinib"}]}, {"smiles": "CN1CCN(CCOc2cc(OC3CCOCC3)c3c(Nc4c(Cl)ccc5c4OCO5)ncnc3c2)CC1", "note": "[Sarakatinib, saracatinib]", "values": [{"measurement": "MN survival", "setting": "[1]", "value": "increased MN survival"}]}, {"smiles": "COc1cc(Nc2c(C#N)cnc3cc(OCCCN4CCN(C)CC4)c(OC)cc23)c(Cl)cc1Cl", "note": "[bosutinib (SKI-606), bosutinib]", "values": [{"measurement": "dose at which the protective effect was exhibited, compared with other hit drugs", "setting": "[1]; in vitro", "value": "protective effect was exhibited at lower dose compared with other hit drugs"}, {"measurement": "dose dependency of the protective effect on MNs", "setting": "[1]", "value": "dose dependency on MN protection without the bell-shaped responses"}, {"measurement": "MN survival", "setting": "[1]", "value": "increased MN survival"}, {"measurement": "phosphorylation of Src/c-Abl by western blot analysis", "setting": "Src/c-Abl", "value": "decreased phosphorylation"}, {"measurement": "phosphorylation of Src/c-Abl by ELISA", "setting": "Src/c-Abl; 1 μM bosutinib added on day 7 for 3 days", "value": "decreased them"}, {"measurement": "phosphorylation of Src in SOD1-mutant ALS astrocytes", "setting": "Src [2]", "value": "inhibited phosphorylation"}, {"measurement": "phosphorylation of Src in SOD1-mutant ALS iPS cells", "setting": "Src [3]", "value": "inhibited phosphorylation"}, {"measurement": "p62 levels", "setting": "p62, LC3-II/LC3-I; ALS MNs, western blot and ELISA", "value": "reduced"}, {"measurement": "change of the LC3-II/LC3-I ratio", "setting": "p62, LC3-II/LC3-I; ALS-MNs", "value": "attenuated"}, {"measurement": "misfolded SOD1 protein levels", "setting": "misfolded SOD1 protein", "value": "reduced the misfolded SOD1 protein levels"}, {"measurement": "SOD1 mRNA expression level", "setting": "SOD1 mRNA", "value": "without decreasing SOD1 mRNA expression levels"}, {"measurement": "intracellular ATP level", "setting": "intracellular ATP", "value": "attenuating effect on the shortage of intracellular ATP"}, {"measurement": "mRNA expressions associated with TCA cycle and respiratory electron transport", "setting": "[4]", "value": "decreased"}, {"measurement": "surviving MNs", "setting": "[5]", "value": "increased surviving MNs"}, {"measurement": "misfolded TDP-43", "setting": "TDP-43; mutant TDP-43-related ALS MN", "value": "decreased"}, {"measurement": "fragmented TDP-43", "setting": "TDP-43; mutant TDP-43-related ALS MN", "value": "decreased"}, {"measurement": "misfolded TDP-43", "setting": "TDP-43; sporadic ALS MN", "value": "decreased"}, {"measurement": "fragmented TDP-43", "setting": "TDP-43; sporadic ALS MN", "value": "decreased"}, {"measurement": "RAN (anti-GP repeat antibody)", "setting": "[6]", "value": "decreased"}, {"measurement": "misfolded SOD1 accumulations in spinal cord", "setting": "mutant SOD1 Tg mice; ELISA at 12 weeks of age, compared with vehicle treatment", "value": "decreased"}, {"measurement": "Src/c-Abl in the spinal cord", "setting": "mutant SOD1 Tg mice; SOD1-mutant Tg mice", "value": "inhibited"}, {"measurement": "number of MNs on one side of the lumbar spinal cord", "setting": "mutant SOD1 Tg mice; late symptomatic stage, compared with vehicle treatment", "value": "significantly higher"}]}, {"smiles": "Cc1nc(Nc2ncc(C(=O)Nc3c(C)cccc3Cl)s2)cc(N2CCN(CCO)CC2)n1", "note": "[dasatinib]", "values": [{"measurement": "dose dependency of the protective effect on MNs", "setting": "[1]", "value": "bell-shaped responses"}]}, {"smiles": "CO[C@H]1C[C@@H]2CC[C@@H](C)[C@@](O)(O2)C(=O)C(=O)N2CCCC[C@H]2C(=O)O[C@H]([C@H](C)C[C@@H]2CC[C@@H](O)[C@H](OC)C2)CC(=O)[C@H](C)/C=C(\\C)[C@@H](O)[C@@H](OC)C(=O)[C@H](C)C[C@H](C)/C=C/C=C/C=C/1C", "note": "[rapamycin]", "values": [{"measurement": "MN survival", "setting": "[1]", "value": "increased MN survival"}]}]}
